The source of these data is PubChem BioAssay AID1508600 (Functional Genomics Laboratory (NCATS/FGL), 2020).

Screen size: about 53,000 sequences; about 3,700 (7%) were called active.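 The calls were made as follows: active = gene knockdowns whose robust z-score for IL-1 alpha signal is at least 2 or at most -2, so actives lie on both sides; inactive = the rest.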 This is one part of the list.

The nature of this experiment: Components of the Cytosolic LPS Sensing Pathway: Gene Identification via Genome-wide siRNA Screen.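 Also: robust z of the log signal after scaling to non-targeting control siRNA wells of the plate.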 Particulars: RAW264.7 macrophages, IL-1a HTRF, actives lie on both sides, screened at 100 nM (by protocol), cells primed 5 h with Pam3CSK4 first. The method, boiled down: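 RAW264.7 mouse macrophages reverse-transfected with single siRNAs (100 nM final) for 48h, primed with Pam3CSK4 for 5 hours, then transfected with LipidA for 24 hour. Supernatant IL-1a read by HTRF; values normalized to negative-control median, log-transformed robust z-scores.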
(In general: Time-resolved FRET reads energy transfer from a long-lived donor to a nearby acceptor.)
For GCAUCGACAUCCACUUGAATT against Kif9, the z-score was inactive: -0.596.

For GGAGUGUUUGGUUUCUAUATT against Slc25a46, the z-score was inactive: 1.69.

With GCUUAGUGGUUCUUAUUUGTT against Olfr893, the z-score was inactive: -0.214.

GGUGAACUUGAGGUCACACTT against Angpt4: the z-score was inactive: 0.134.

Consider GGACUACCAGUUUUACAUCTT against Ssr1, for which the z-score was inactive: 1.25.

For the sequence GCACUCCUGAAAAUCACCUTT against Lax1, the z-score is inactive: 0.776.

As for CGAGAUCGAGUACUCAACUTT against Vps39, the z-score was active: -2.96.

Regarding GGAGAUCGACAAAUGCCUGTT against Gna13, the z-score was inactive: -1.64.

GGAAUCAAGGACUUUAGUATT against Slc17a2: the z-score was inactive: 1.29.

Regarding CCUUCCUACCGGAGAAUGATT against Capn6, the z-score was inactive: -0.341.

As to GCUAACCAACUUAAUUCUATT against Angptl3, the z-score was inactive: 0.675.

Take CCUAACGGUCAGAAGUUGATT against Ccng1: the z-score was inactive: 0.39.

Consider CCGUUGUGAACUACAAGCUTT against Ufsp1, for which the z-score is inactive: 0.575.

Take GCCCAAGGUGAUCAUUAUUTT against Casp1: the z-score is inactive: -0.15.

Regarding GGUCUUCAGGGAGUUCUUCTT against Dnajb3, the z-score is inactive: 1.27.

Regarding CCCUGUAUAUAUUUGCUGATT against Clca3a2, the z-score was active: 2.78.

GGAAGUAGGAUGAUGUUGGTT against Hmga1: the z-score was active: -2.08.

In the case of GCCAUCACAAUUCUAAUCCTT against Vmn2r123, the z-score was inactive: -1.54.

GGAAAAGGAACUUUAUCUATT against Pds5b: the z-score is inactive: -0.506.

In the case of GCAAGUAUCCCGAAUUGACTT against Snhg11, the z-score is inactive: -0.39.

Regarding GGGAUAGAAAUGAUUGAGGTT against Lhx8, the z-score was inactive: 0.512.

GCCUAUCAGUAUCAUAGUUTT against Dnajc10: the z-score is inactive: 0.905.

Turning to GGCCAAGGUACAAUCCACCTT against Ajm1, the z-score was inactive: 0.481.

For the sequence GGGAACAUGUGGAAGUAUGTT against Ndufaf7, the z-score was inactive: 0.187.

As to GCGUGGAGUGGGAUAAAGATT against Cant1, the z-score was inactive: -1.1.

On to CCUAGAGUCUCAGGACUGUTT against Actrt3, for which the z-score was inactive: 0.682.

Consider GGAGGAUAUCACAACAGAATT against Ftsj3, for which the z-score is inactive: -0.971.

Turning to GGGAUUUCUAUAACCCGUUTT against Cldn3, the z-score is inactive: -1.01.

As to GGCCAAGAGUGUUUCCAAATT against Samt4, the z-score is inactive: 1.53.

In the case of GGGUCCUAAGACUAUUGAUTT against Eif4g1, the z-score was inactive: 0.274.

Turning to GGUGUGAUGGAGUUCUUAUTT against Ndufs1, the z-score was inactive: -0.94.

For the sequence CGCUCAUUUAGACAUAGAGTT against Ass1, the z-score is inactive: 0.686.

As for GGUAGAGGUUAAGACGAUCTT against Dock6, the z-score was inactive: -0.436.

For the sequence GGUUUCAAGGAAAGACUAATT against Kcnj2, the z-score was inactive: -0.846.

For the sequence GCGCAGAGUUUGACUAUCCTT against Itgb7, the z-score was inactive: 0.86.

Consider GGUCACCCUGUUUAGGCCUTT against Fgd3, for which the z-score is inactive: 0.571.

Regarding GGUAACAUUUUUUUCCUGUTT against Pla2g3, the z-score is inactive: 0.868.

As for GGACUUCUACCUGUCCAUATT against Crtap, the z-score is inactive: 1.24.

Turning to CGUGGCUCACAAUAAAUGCTT against Cfd, the z-score is inactive: 0.385.

Consider CCGCUGAAAAUGGAAGUUATT against Mrgprb4, for which the z-score was active: -2.21.

As to CGAGAUUUCUGAUGAUGAUTT against Osbpl3, the z-score is inactive: 0.0194.

Turning to GCACCAUAACGUAAGGCAUTT against Ghsr, the z-score is inactive: -1.13.

For the sequence CGAACAGUGCUUCGUAUGUTT against Lims1, the z-score is inactive: -1.04.

For CCAUUUAAUCCAUAUUUCCTT against Gnao1, the z-score was active: -2.05.

Take CCCUGUCUCCCGCAUAGAATT against Itgb6: the z-score is inactive: 1.33.

Regarding GGUGAUACUACAUAUCAAGTT against Adamts8, the z-score is inactive: 0.668.

GCUACAGGAUUACAUGGUCTT against Ccm2l: the z-score is inactive: 0.48.

On to GGCUUUUGUGGACUUUACATT against Capn12, for which the z-score was inactive: 1.42.

Consider GCAAUAAAAACUACACUAGTT against Agpat3, for which the z-score is inactive: -0.432.

As for CCAUUACUUCUGUGACCUCTT against Olfr32, the z-score is inactive: -0.289.

Take GGAAAUUCUACAAGGGCAATT against Rpl35: the z-score was inactive: 1.04.

In the case of CCCAGAAGAGACUAUACUGTT against Myl10, the z-score was inactive: 0.202.

For GGUGUAAGGCUGUUGUAUUTT against Ackr3, the z-score was inactive: -0.0492.

With GCAUAGCAGAGAUGAUUCUTT against Trip12, the z-score was active: 2.15.

For the sequence GGUGGAGAAACAAAUUAGUTT against Rab9, the z-score is inactive: 1.47.

GGGUAAUUCCCAGUGAAGATT against Lpin2: the z-score was inactive: -0.661.

Turning to CCCGUAAGGUAACAAACCGTT against Polr3k, the z-score is inactive: -1.14.

Take CCUUUAAAAGCGUAGGCAUTT against Esrp1: the z-score is inactive: -0.695.

Consider GGGUGUAACAAAAUAAAGUTT against Ptprg, for which the z-score is inactive: 0.0684.

As to GGUGUAUCGCCUAUACCAGTT against Chmp7, the z-score was inactive: -0.0399.

For the sequence GGGCAUUUUGAGAAUAUGATT against Zfp85os, the z-score was inactive: -1.31.

Regarding CCUUGAAUAACUGUAUGGUTT against Etfbkmt, the z-score is inactive: 0.77.

GGACAUUGGCCAUUUGGUUTT against Fpr1: the z-score was inactive: -0.21.

Turning to CCUCUACAGGCAAAAUUAGTT against Aurkb, the z-score is inactive: -1.09.

With CCAGCUUACAUGAAUAGUUTT against Alx1, the z-score is inactive: -0.205.

On to CGAAAACCUUGCCACUGAGTT against Dbndd1, for which the z-score is inactive: 0.321.

As to GGCUUUCGUUUACAACAAGTT against Naglu, the z-score is inactive: -0.414.

As to GGCAUAUGUUCGUCUUUCATT against Asf1b, the z-score is inactive: -1.25.

Consider CGGAUGAAUGGACUUCCAATT against Dcx, for which the z-score was inactive: 1.16.
